In article doi:10.1101/2020.06.29.177279 one finds binding data, which are given here for 5 molecules.

These are yes or no findings as the source states them, for the method shown. For some assays here: Binding seen in cells or lysates may run through a third protein. Some results given as binding are weak or reduced against the parent protein; the word gives no strength. For some assays here: Tags and fused reporters may be left off the sequences shown.

Test [1] has as its target T1, HA-tagged RPC5 Full Length (amino acids 1-708) (human) (UniProt Q9NVU0).
T1 sequence: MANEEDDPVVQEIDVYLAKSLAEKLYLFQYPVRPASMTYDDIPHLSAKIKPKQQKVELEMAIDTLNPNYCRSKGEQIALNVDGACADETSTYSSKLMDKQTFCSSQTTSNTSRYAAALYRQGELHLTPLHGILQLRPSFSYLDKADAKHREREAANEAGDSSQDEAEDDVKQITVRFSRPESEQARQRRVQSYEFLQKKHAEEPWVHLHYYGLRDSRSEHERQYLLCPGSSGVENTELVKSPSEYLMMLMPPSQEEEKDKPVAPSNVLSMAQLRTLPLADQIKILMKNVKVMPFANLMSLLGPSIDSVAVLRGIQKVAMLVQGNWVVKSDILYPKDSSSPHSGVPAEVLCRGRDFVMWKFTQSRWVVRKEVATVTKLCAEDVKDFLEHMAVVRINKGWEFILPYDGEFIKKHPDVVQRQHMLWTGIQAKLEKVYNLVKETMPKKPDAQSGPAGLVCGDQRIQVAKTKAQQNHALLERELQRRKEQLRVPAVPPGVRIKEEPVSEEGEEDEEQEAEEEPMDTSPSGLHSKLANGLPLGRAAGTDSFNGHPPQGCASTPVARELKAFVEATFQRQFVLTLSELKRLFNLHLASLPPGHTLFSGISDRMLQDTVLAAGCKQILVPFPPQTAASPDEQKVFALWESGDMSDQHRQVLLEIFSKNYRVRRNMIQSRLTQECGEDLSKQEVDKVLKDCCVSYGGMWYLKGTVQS
In words: co-IP.

The target in test [2] is T2, HA-tagged RPC5ΔC (amino acids 1-253) (human) (UniProt Q9NVU0).
T2 sequence: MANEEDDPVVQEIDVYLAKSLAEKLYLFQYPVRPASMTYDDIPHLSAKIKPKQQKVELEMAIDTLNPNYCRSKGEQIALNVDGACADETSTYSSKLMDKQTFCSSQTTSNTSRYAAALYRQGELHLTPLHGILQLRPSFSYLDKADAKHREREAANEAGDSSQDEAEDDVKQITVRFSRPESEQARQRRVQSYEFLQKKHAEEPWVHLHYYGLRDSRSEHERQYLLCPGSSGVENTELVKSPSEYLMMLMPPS
Description: co-IP.

In another test the target is Rpc5 (556-708) (human) (UniProt Q9NVU0). Description: SAXS.
The target of test [3] is SeMet-Rpc5 (556-708) (human) (UniProt Q9NVU0). Description: crystal structure.

B1: RPC2 (endogenous in HEK293T) (protein, UniProt Q9NW08 1-1133)
chain: MDVLAEEFGNLTPEQLAAPIPTVEEKWRLLPAFLKVKGLVKQHIDSFNYFINVEIKKIMKANEKVTSDADPMWYLKYLNIYVGLPDVEESFNVTRPVSPHECRLRDMTYSAPITVDIEYTRGSQRIIRNALPIGRMPIMLRSSNCVLTGKTPAEFAKLNECPLDPGGYFIVKGVEKVILIQEQLSKNRIIVEADRKGAVGASVTSSTHEKKSRTNMAVKQGRFYLRHNTLSEDIPIVIIFKAMGVESDQEIVQMIGTEEHVMAAFGPSLEECQKAQIFTQMQALKYIGNKVRRQRMWGGGPKKTKIEEARELLASTILTHVPVKEFNFRAKCIYTAVMVRRVILAQGDNKVDDRDYYGNKRLELAGQLLSLLFEDLFKKFNSEMKKIADQVIPKQRAAQFDVVKHMRQDQITNGMVNAISTGNWSLKRFKMDRQGVTQVLSRLSYISALGMMTRISSQFEKTRKVSGPRSLQPSQWGMLCPSDTPEGEACGLVKNLALMTHITTDMEDGPIVKLASNLGVEDVNLLCGEELSYPNVFLVFLNGNILGVIRDHKKLVNTFRLMRRAGYINEFVSISTNLTDRCVYISSDGGRLCRPYIIVKKQKPAVTNKHMEELAQGYRNFEDFLHESLVEYLDVNEENDCNIALYEHTINKDTTHLEIEPFTLLGVCAGLIPYPHHNQSPRNTYQCAMGKQAMGTIGYNQRNRIDTLMYLLAYPQKPMVKTKTIELIEFEKLPAGQNATVAVMSYSGYDIEDALVLNKASLDRGFGRCLVYKNAKCTLKRYTNQTFDKVMGPMLDAATRKPIWRHEILDADGICSPGEKVENKQVLVNKSMPTVTQIPLEGSNVPQQPQYKDVPITYKGATDSYIEKVMISSNAEDAFLIKMLLRQTRRPEIGDKFSSRHGQKGVCGLIVPQEDMPFCDSGICPDIIMNPHGFPSRMTVGKLIELLAGKAGVLDGRFHYGTAFGGSKVKDVCEDLVRHGYNYLGKDYVTSGITGEPLEAYIYFGPVYYQKLKHMVLDKMHARARGPRAVLTRQPTEGRSRDGGLRLGEMERDCLIGYGASMLLLERLMISSDAFEVDVCGQCGLLGYSGWCHYCKSSCHVSSLRIPYACKLLFQELQSMNIIPRLKLSKYNE
Take B1: the binding result in test [1] and in test [2] was “binds” in each case.

B2: RPC4 (endogenous in HEK293T) (protein, UniProt P05423 1-398)
chain: MSEGNAAGEPSTPGGPRPLLTGARGLIGRRPAPPLTPGRLPSIRSRDLTLGGVKKKTFTPNIISRKIKEEPKEEVTVKKEKRERDRDRQREGHGRGRGRPEVIQSHSIFEQGPAEMMKKKGNWDKTVDVSDMGPSHIINIKKEKRETDEETKQILRMLEKDDFLDDPGLRNDTRNMPVQLPLAHSGWLFKEENDEPDVKPWLAGPKEEDMEVDIPAVKVKEEPRDEEEEAKMKAPPKAARKTPGLPKDVSVAELLRELSLTKEEELLFLQLPDTLPGQPPTQDIKPIKTEVQGEDGQVVLIKQEKDREAKLAENACTLADLTEGQVGKLLIRKSGRVQLLLGKVTLDVTMGTACSFLQELVSVGLGDSRTGEMTVLGHVKHKLVCSPDFESLLDHKHR
In the case of B2, the binding entry in test [1] and in test [2] was “binds” throughout.

B3: Rpc5 (556-708) (domain or fragment, UniProt Q9NVU0 556-708)
chain: TPVARELKAFVEATFQRQFVLTLSELKRLFNLHLASLPPGHTLFSGISDRMLQDTVLAAGCKQILVPFPPQTAASPDEQKVFALWESGDMSDQHRQVLLEIFSKNYRVRRNMIQSRLTQECGEDLSKQEVDKVLKDCCVSYGGMWYLKGTVQS
As to B3, in the test with Rpc5 (556-708) (human), the binding entry is given as “no binding (tested: 3691 μM)”.

B4: SeMet-Rpc5 (556-708) (domain or fragment, UniProt Q9NVU0 556-708)
chain: B3 chain
modifications: selenomethionine (SeMet) in place of methionine
For B4, the binding result in test [3] is “no binding”.

B5: RPC1 (endogenous in HEK293T) (protein, UniProt O14802 1-1390)
chain: MVKEQFRETDVAKKISHICFGMKSPEEMRQQAHIQVVSKNLYSQDNQHAPLLYGVLDHRMGTSEKDRPCETCGKNLADCLGHYGYIDLELPCFHVGYFRAVIGILQMICKTCCHIMLSQEEKKQFLDYLKRPGLTYLQKRGLKKKISDKCRKKNICHHCGAFNGTVKKCGLLKIIHEKYKTNKKVVDPIVSNFLQSFETAIEHNKEVEPLLGRAQENLNPLVVLNLFKRIPAEDVPLLLMNPEAGKPSDLILTRLLVPPLCIRPSVVSDLKSGTNEDDLTMKLTEIIFLNDVIKKHRISGAKTQMIMEDWDFLQLQCALYINSELSGIPLNMAPKKWTRGFVQRLKGKQGRFRGNLSGKRVDFSGRTVISPDPNLRIDEVAVPVHVAKILTFPEKVNKANINFLRKLVQNGPEVHPGANFIQQRHTQMKRFLKYGNREKMAQELKYGDIVERHLIDGDVVLFNRQPSLHKLSIMAHLARVKPHRTFRFNECVCTPYNADFDGDEMNLHLPQTEEAKAEALVLMGTKANLVTPRNGEPLIAAIQDFLTGAYLLTLKDTFFDRAKACQIIASILVGKDEKIKVRLPPPTILKPVTLWTGKQIFSVILRPSDDNPVRANLRTKGKQYCGKGEDLCANDSYVTIQNSELMSGSMDKGTLGSGSKNNIFYILLRDWGQNEAADAMSRLARLAPVYLSNRGFSIGIGDVTPGQGLLKAKYELLNAGYKKCDEYIEALNTGKLQQQPGCTAEETLEALILKELSVIRDHAGSACLRELDKSNSPLTMALCGSKGSFINISQMIACVGQQAISGSRVPDGFENRSLPHFEKHSKLPAAKGFVANSFYSGLTPTEFFFHTMAGREGLVDTAVKTAETGYMQRRLVKSLEDLCSQYDLTVRSSTGDIIQFIYGGDGLDPAAMEGKDEPLEFKRVLDNIKAVFPCPSEPALSKNELILTTESIMKKSEFLCCQDSFLQEIKKFIKGVSEKIKKTRDKYGINDNGTTEPRVLYQLDRITPTQVEKFLETCRDKYMRAQMEPGSAVGALCAQSIGEPGTQMTLKTFHFAGVASMNITLGVPRIKEIINASKAISTPIITAQLDKDDDADYARLVKGRIEKTLLGEISEYIEEVFLPDDCFILVKLSLERIRLLRLEVNAETVRYSICTSKLRVKPGDVAVHGEAVVCVTPRENSKSSMYYVLQFLKEDLPKVVVQGIPEVSRAVIHIDEQSGKEKYKLLVEGDNLRAVMATHGVKGTRTTSNNTYEVEKTLGIEAARTTIINEIQYTMVNHGMSIDRRHVMLLSDLMTYKGEVLGITRFGLAKMKESVLMLASFEKTADHLFDAAYFGQKDSVCGVSECIIMGIPMNIGTGLFKLLHKADRDPNPPKRPLIFDTNEFHIPLVT
With B5, the binding entry in test [1] and in test [2] was “binds” throughout.
